Results are given in words; binding and its absence hold for the method and conditions named. Binding can be weak; no strength is given.

This note sets out measurements from publication PMC11375011, “Inducible auto-phosphorylation regulates a widespread family of nucleotidyltransferase toxins” (Nature Communications, 2024).

The assay addresses MenT1 T39A (Mycobacterium tuberculosis) (UniProt L7N686). Put plainly: SEC; both purified. (In general: Size exclusion chromatography separates by hydrodynamic size, large species first.)

B1: MenA1 wild type (protein, UniProt I6X8G2 2-68)
chain: AVSVAAQKLRLALDMYEVGEQMQRMRLGRERPNADVVEIEAAIDAWRMTRPGAEEGDSAGPTSTRFT
For the molecule B1, the binding result is “binds”.
